For experiment [1], the target named is pyruvate kinase muscle 2 (PKM2), murine (mouse (endogenous in murine peritoneal macrophages)) (UniProt P52480). In words: affinity purification with mass spectrometry.
Experiment [2] has the same target. The experiment can be described thus: affinity purification with mass spectrometry. The source holds these as a separate data set.

Chains of the proteins cited; added tags and fusions are not shown. Residues count along the entry.
UniProt P52480: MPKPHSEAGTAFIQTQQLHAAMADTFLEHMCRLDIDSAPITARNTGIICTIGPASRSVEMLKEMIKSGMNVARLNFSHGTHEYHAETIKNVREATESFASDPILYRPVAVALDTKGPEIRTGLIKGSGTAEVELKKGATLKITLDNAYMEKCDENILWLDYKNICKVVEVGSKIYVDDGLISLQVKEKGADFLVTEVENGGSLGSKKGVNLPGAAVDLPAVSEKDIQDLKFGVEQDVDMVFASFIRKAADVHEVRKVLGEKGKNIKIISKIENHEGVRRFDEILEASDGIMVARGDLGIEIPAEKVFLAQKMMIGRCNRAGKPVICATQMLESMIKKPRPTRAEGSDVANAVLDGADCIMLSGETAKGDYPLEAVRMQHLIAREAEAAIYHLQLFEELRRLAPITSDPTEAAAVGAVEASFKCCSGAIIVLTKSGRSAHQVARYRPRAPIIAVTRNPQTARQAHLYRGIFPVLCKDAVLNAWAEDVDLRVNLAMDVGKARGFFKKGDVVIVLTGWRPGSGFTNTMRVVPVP
UniProt P38647, residues 47-679: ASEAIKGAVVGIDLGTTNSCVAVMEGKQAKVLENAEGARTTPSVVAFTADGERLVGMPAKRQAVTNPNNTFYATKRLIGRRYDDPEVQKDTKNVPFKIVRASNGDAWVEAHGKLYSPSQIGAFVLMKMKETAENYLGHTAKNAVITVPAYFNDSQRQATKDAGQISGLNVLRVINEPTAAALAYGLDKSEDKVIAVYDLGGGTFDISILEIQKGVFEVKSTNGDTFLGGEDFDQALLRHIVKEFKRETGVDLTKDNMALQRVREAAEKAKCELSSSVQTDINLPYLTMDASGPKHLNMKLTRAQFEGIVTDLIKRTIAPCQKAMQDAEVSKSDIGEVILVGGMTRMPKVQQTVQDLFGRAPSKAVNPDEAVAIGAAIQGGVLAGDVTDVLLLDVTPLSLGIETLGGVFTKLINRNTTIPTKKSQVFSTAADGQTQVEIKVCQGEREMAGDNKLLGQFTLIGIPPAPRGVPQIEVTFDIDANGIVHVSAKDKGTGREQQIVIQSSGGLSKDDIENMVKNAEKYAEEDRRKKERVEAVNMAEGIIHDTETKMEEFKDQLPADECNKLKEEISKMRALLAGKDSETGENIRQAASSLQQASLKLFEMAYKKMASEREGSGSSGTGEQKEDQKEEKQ

Read-outs that look alike come from different tables or passages of the source. No constants are given. Whether binding was seen depends on the method and setting. Binding seen in cells or lysates may run through a third protein. Here binding means that the protein was enriched with, or labelled near, the bait; the list need not be complete.

Consider “GRP75, murine (from UniProt P38647 47-679)”, for which the binding result in experiment [1] is listed as “binds”.

B1: UQCRC1, a subunit of ETC Complex III, murine (protein, UniProt Q9CZ13 35-480)
chain: TATFAQALQSVPETQVSILDNGLRVASEQSSHATCTVGVWIDAGSRYETEKNNGAGYFLEHLAFKGTKNRPGNALEKEVESIGAHLNAYSTREHTAYLIKALSKDLPKVVELLADIVQNSSLEDSQIEKERDVILREMQENDASMQNVVFDYLHATAFQGTPLAQAVEGPSENVRRLSRTDLTDYLNRHYKAPRMVLAAAGGVEHQQLLDLAQKHLSSVSRVYEEDAVPGLTPCRFTGSEIRHRDDALPLAHVAIAVEGPGWANPDNVTLQVANAIIGHYDCTYGGGVHLSSPLASVAVANKLCQSFQTFNISYSDTGLLGAHFVCDAMSIDDMVFFLQGQWMRLCTSATESEVTRGKNILRNALVSHLDGTTPVCEDIGRSLLTYGRRIPLAEWESRIQEVDAQMLRDICSKYFYDQCPAVAGYGPIEQLPDYNRIRSGMFWLRF
With B1, in experiment [2], the binding result is “binds”.

The values above are taken from publication doi:10.1101/2023.09.07.556574.
